Results as given in PubChem BioAssay AID2685 (National Center for Advancing Translational Sciences (NCATS), 2010).
Some of the results follow. Shown are side measurements of this screen, not its main read-out; they come without a call. Most of these compounds were active or inconclusive in the main read-out, so they are no random draw. Words in brackets tell the shape of the fitted curve; partial curves, single points and poor fits give uncertain potencies.

Experiment: qHTS Assay for Lipid Storage Modulators in Drosophila S3 Cells;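 on cell number change: cells counted by Cell Tracker Red CMTPX staining in the red channel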
Details: BODIPY lipid droplet fluorescence, 18-24 h; for cell number change: measured here: cell count max response, cells fed with added oleic acid
How it was run: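 Drosophila S3 cells got compounds at several concentrations plus oleic acid (400 uM solution). Laser-scanning cytometry with 488 nm excitation read lipid droplets at 500-530 nm and cells at 575-640 nm. Percent activity was relative to 20 uM Triacsin C.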

[1] = measured here: cell number channel AC50, cells fed with added oleic acid
[2] = measured here: lipid fluorescence (Fed channel) AC50, cells fed with added oleic acid

SMILES | cell number change [%] | AC50 [1] | AC50 [2]
N#C/C(=C\c1cccc(Br)c1)C(=O)N1CCCCC1 | -40.5 | 16.4 µM [falling, partial curve, poor fit] | –
CCCCCCNC(=O)c1c(O)c2ccccc2[nH]c1=O | 9.63 | – | –
Cc1[nH]n(-c2ccccc2)c(=O)c1N=Nc1ccccc1 | -20 | – | 32.6 µM [falling, single point]
COc1ccc(N=c2oc3c(OC)cccc3cc2C(=O)NCc2ccco2)cc1OC | -20 | – | 0.58 µM [rising, single point]
CCN(CC)CCNC(=O)c1cc(-c2ccc(Br)s2)nc2ccccc12 | 10.6 | – | 0.461 µM [rising, full curve]
Cc1ccccc1OCC(=O)Nc1ccccc1-c1ccccc1NC(=O)COc1ccccc1C | 24.6 | – | 4.61 µM [rising, partial curve]
C/C(=N/NC(=O)c1ccn(C)n1)c1ccncc1 | 7.25 | – | 0.461 µM [falling, partial curve, poor fit]
COC(=O)C(=Nc1ccccc1)/C(C(=O)C(=O)N(C)c1ccccc1)=C(\O)c1ccc(Cl)cc1 | 1.76 | – | –
Fc1ccc(CSc2nc3ncccc3[nH]2)cc1 | 7.12 | – | 5.8 µM [falling, single point]
CCOc1ccc(-n2cc(C(=O)N3CCCCCC3)c3cc(OC)c(OC)cc3c2=O)cc1 | -23.7 | – | 32.6 µM [falling, single point]
CCC1(c2ccccc2)NC(=O)N(CC(=O)Nc2cccc(S(=O)(=O)N3CCCC3)c2)C1=O (stereo not drawn) | -7.16 | – | 2.59 µM [rising, partial curve, poor fit]
Cc1cc(C)n(CC(=O)NCc2cc(-c3nn(C)c(=O)c4ccccc34)ccc2C)n1 | -17.4 | – | 0.206 µM [rising, full curve, poor fit]
COc1ccc(-c2nn(-c3ccccc3)cc2/C=N/NC(=O)c2cccc(S(=O)(=O)Nc3ccccc3OC)c2)cc1 | 27.2 | – | 0.13 µM [rising, full curve, poor fit]
CC1CCN(C(=O)COC(=O)/C=C/c2ccc(Br)o2)CC1 | -12.6 | – | 0.00461 µM [falling, full curve, poor fit]
CC(NC(=O)Cn1cccc1)c1ccccc1 (stereo not drawn) | 19.4 | – | 25.9 µM [rising, single point]
Nc1ccc2nc(SCC(=O)Nc3ccc(N4CCOCC4)c(Cl)c3)sc2c1 | -31.8 | 32.6 µM [falling, single point] | 18.4 µM [falling, partial curve, poor fit]
CC(C(=O)N1CCOCC1)N1c2cccc3cccc(c23)S1(=O)=O (stereo not drawn) | 23 | – | 0.13 µM [falling, full curve, poor fit]

Some of the entries above in another layout.
SMILES	cell number change [%]	AC50 [1]	AC50 [2]
Fc1ccc(CSc2nc3ncccc3[nH]2)cc1	7.12	–	5.8 µM [falling, single point]
CCOc1ccc(-n2cc(C(=O)N3CCCCCC3)c3cc(OC)c(OC)cc3c2=O)cc1	-23.7	–	32.6 µM [falling, single point]
CCC1(c2ccccc2)NC(=O)N(CC(=O)Nc2cccc(S(=O)(=O)N3CCCC3)c2)C1=O (stereo not drawn)	-7.16	–	2.59 µM [rising, partial curve, poor fit]
Cc1cc(C)n(CC(=O)NCc2cc(-c3nn(C)c(=O)c4ccccc34)ccc2C)n1	-17.4	–	0.206 µM [rising, full curve, poor fit]
